Over roughly 33,000 sequences, “E-score (-0.5 to 0.5)” has its median near -0.0034; the highest 2% begin near 0.25. Some of the results follow.
Molecular target: T1, Yap3 (UniProt P38749)
T1 sequence: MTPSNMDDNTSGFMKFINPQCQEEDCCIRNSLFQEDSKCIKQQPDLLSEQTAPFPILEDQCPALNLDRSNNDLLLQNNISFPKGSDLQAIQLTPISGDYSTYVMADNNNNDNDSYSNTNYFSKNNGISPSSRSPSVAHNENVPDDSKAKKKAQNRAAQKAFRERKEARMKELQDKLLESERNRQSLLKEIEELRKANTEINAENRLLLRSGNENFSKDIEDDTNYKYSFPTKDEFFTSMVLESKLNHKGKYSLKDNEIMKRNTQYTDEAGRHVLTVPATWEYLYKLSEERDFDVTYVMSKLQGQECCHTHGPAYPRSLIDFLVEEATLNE
Assay: PBM E-score (8-mer binding enrichment) (E-score (-0.5 to 0.5)); higher = stronger / more preferred TF binding
Conditions: protein concentration: 100 nM; construct: GST-full length
Outline: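 Universal all-10-mer Agilent arrays, double-stranded by primer extension on fresh or once-stripped slides, were probed with about 100-200 nM GST-tagged yeast transcription factors made by PURExpress. Fluorescent anti-GST detected bound protein, and masliner normalised the scans. E-scores from the Universal PBM Analysis Suite were given to each ungapped eight-base word pooled with its reverse complement.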

Row | Sequence | PBM E-score
1 | CCGCATTA | 0.114
2 | ATACCCTC | -0.0594
3 | CTTTGTGC | 0.0343
4 | TCCACTCA | -0.0431
5 | ATCGAGTA | 0.0073
6 | AGTTATGA | 0.0243
7 | CGGCGAAC | -0.0186
8 | ATTCAAAA | 0.162
9 | CGGTTGTA | -0.139
10 | TGATGCCA | 0.0576
11 | CTTTAACA | 0.147
12 | GTTAATTA | 0.262
13 | AGAGTGAT | 0.129
14 | CGCGGCGA | 0.136
15 | AACGGACG | -0.0678
16 | CTACTTTC | 0.109
17 | ATGTTCTC | 0.0154
18 | ATGTCAGC | 0.0482
19 | ACGGTTCT | -0.146
20 | AGCCGGGA | -0.0455
21 | AAACACAG | 0.17
22 | TCGTCAAA | 0.12
23 | CCCGTTAC | 0.0116
24 | AAGCTCCG | -0.00442
25 | AGCGAAGA | -0.042

Some values from the entries so far:
PBM E-score, AAACACAG is entered as 0.17
PBM E-score, AGCCGGGA is entered as -0.0455
PBM E-score, ATGTCAGC is entered as 0.0482

(next part)

Row | Sequence | PBM E-score
26 | CTACGGTA | -0.0404
27 | CTCTTCAA | -0.245
28 | ACGAACTA | 0.103
29 | TCGGTCCA | -0.0281
30 | GTACTGTA | -0.0686
31 | ATGGCGAC | -0.0167
32 | ACTAATAG | 0.244
33 | GATTTTCC | 0.0437
34 | AAACTGAC | -0.0546
35 | ATCCCCTC | -0.223
36 | CGTACGAA | 0.0973
37 | AACTGCCT | 0.0407
38 | CTTGTTAA | 0.022
39 | AAACTGTC | 0.0726
40 | CGGGGTGC | -0.228
41 | AAACTGCT | -0.156
42 | CCTGCTTA | -0.00519
43 | CTGCTGTA | -0.0979
44 | GAGATGTA | 0.14
45 | GAAGAAGA | 0.00074
46 | ACCACCTG | -0.0502
47 | GCAGTCAC | -0.0834
48 | GTGACTCA | 0.0409
49 | ACGCGCAA | 0.114
50 | CAAACCGC | -0.109

Row | Sequence | PBM E-score
51 | AAGGGCTC | -0.216
52 | GATAAAGA | 0.196
53 | ACAGATTG | 0.0126
54 | CACTCATA | 0.107
55 | CGATGCCA | -0.195
56 | AATTGTTG | 0.0159
57 | CGGCTGGC | -0.275
58 | CCGTAACA | 0.126
59 | AAAGAAGG | -0.0833
60 | AGCATTTG | 0.0343
61 | ATAATGTC | 0.195
62 | GCGAAAGC | -0.144
63 | AGTACAGG | 0.103
64 | AATCAAGT | 0.0618
65 | AACTATGT | -0.039
66 | ACTAGAAT | 0.158
67 | CCGGGGAG | -0.222
68 | ACCAGGGA | -0.136
69 | ATGCACAT | -0.0185
70 | ACTTCCAA | -0.0542
71 | ATTTGTCA | 0.313
72 | ATGTAAGA | 0.277
73 | ACACGACG | 0.0804
74 | GTAGGCAC | -0.164
75 | CTACACAG | -0.0361

Row | Sequence | PBM E-score
76 | CAAGTCGG | 0.0991
77 | AACGATTC | 0.0792
78 | ACTTTCGG | -0.0572
79 | AATTTGGA | 0.0508
80 | CAAAGTAA | 0.0789
81 | ACTTCAAA | -0.0614
82 | ACCCTTCG | -0.174
83 | CCATCCGG | -0.153
84 | CGATATAA | 0.2
85 | CCGGAAAA | 0.106
86 | AGAATTGG | 0.0708
87 | ACCAATGC | 0.113
88 | AGGCTGCG | 0.00491
89 | CCTGGGCC | -0.348
90 | TAATTTCA | 0.309
91 | ACCGAGTG | -0.179
92 | TCATAAGA | 0.081
93 | TACATCCA | 0.076
94 | CGCGGTAC | 0.0798
95 | TCATCCCA | -0.0661
96 | AGTATTCA | 0.113
97 | GACTCTAA | 0.0306
98 | CCAGTAAA | 0.0139
99 | CCGGATAG | 0.103
100 | GGGGCATA | -0.0601

Row | Sequence | PBM E-score
101 | AATGCAGC | -0.189
102 | ACCAAAAG | 0.147
103 | ACGCCCGA | -0.142
104 | CGAAAAAG | 0.162
105 | CCTGTAAG | -0.0739
106 | GCATCAAC | 0.139
107 | AAAATTTA | 0.0414
108 | ACTTCCCA | 0.084
109 | GTGGAAGA | -0.0717
110 | CGACCGGA | -0.231
111 | CGGCCGAC | -0.0351
112 | ACAGAGAA | 0.0641
113 | CTAGGTGC | -0.195
114 | GTAAGTCA | 0.025
115 | ACTGGCGG | -0.0184
116 | CCTTTAAG | -0.106
117 | ACCGGCGG | -0.22
118 | TATTGAGA | 0.193
119 | CACGTAGC | -0.273
120 | CATGAACC | 0.0622
121 | GAATTGGA | 0.0794
122 | CGTTGCCC | -0.15
123 | CCCCTAAG | -0.165
124 | TTAATAAA | 0.372
125 | TGACTCCA | -0.329

Row | Sequence | PBM E-score
126 | CACGTTCG | -0.00184
127 | CTAGGAGA | -0.182
128 | AACCGCGT | 0.199
129 | GTACTTAA | -0.0578
130 | CACAGGTC | -0.158
131 | ATAGGCCG | -0.231
132 | ATACAAAC | 0.239
133 | AGCCTGCC | -0.103
134 | GGCGCCGA | 0.00064
135 | AACGAACA | 0.259
136 | GAGACCGA | -0.0759
137 | CAACGTCA | -0.0272
138 | TCCAAAAA | 0.0789
139 | GACCATGC | -0.0665
140 | GTAATGGA | 0.288
141 | ACTCCTGG | -0.163
142 | CCGATACG | -0.0939
143 | CCGTCAGG | -0.227
144 | AAGACTTC | -0.161
145 | AGTGGTGC | -0.0298
146 | GCCTGACC | -0.168
147 | ACCCCCTG | -0.427
148 | AGGTGAGC | -0.183
149 | ACGTCTAG | -0.0164
150 | CCTGGCTC | -0.16

Row | Sequence | PBM E-score
151 | GCCTAGGC | -0.131
152 | AGTGACCG | -0.211
153 | ACCGTGGA | -0.125
154 | CAGTAAGA | 0.129
155 | CCGACGAA | 0.11
156 | ACTCACGG | 0.109
157 | GTTAGGGA | -0.0734
158 | CGTGGCAG | -0.0996
159 | CGCGTGGA | -0.183
160 | ACTAAACA | 0.237
161 | AACCAACA | -0.00605
162 | ATCATCCC | 0.016
163 | CGTTTATC | 0.117
164 | CGTCATTA | 0.161
165 | GTCAACCA | -0.0972
166 | ATGACGAC | 0.113
167 | ACCACGCG | 0.0791
168 | ATAGTGGG | 0.0666
169 | GCCCCCTA | -0.246
170 | AGATCGAG | 0.0939
171 | AGGCATGG | 0.00347
172 | ACCCATAA | 0.0521
173 | GCTGCCCC | -0.196
174 | CAGTTAAC | 0.112
175 | GGGGTCAA | -0.0796

An excerpt of these results, field by field:
CCGACGAA
  PBM E-score = 0.11
ACTCACGG
  PBM E-score = 0.109
GTTAGGGA
  PBM E-score = -0.0734
CGTGGCAG
  PBM E-score = -0.0996

Additional results

Row | Sequence | PBM E-score
176 | AAACGAGA | 0.0399
177 | AATGCTTA | 0.145
178 | CGCCCGCA | -0.0032
179 | CACGCTAA | 0.0663
180 | AGCATGCC | -0.108
181 | GGAAGTCA | 0.0375
182 | AGTGCCTG | -0.0521
183 | GCCCGGTA | -0.119
184 | GGTTTCAA | 0.118
185 | GTCGATCA | -0.0564
186 | ACTTTCTC | 0.0826
187 | CGGACTGC | -0.138
188 | AATGCATG | 0.188
189 | ATTGAGCG | 0.0784
190 | CGTAAATA | 0.262
191 | ATTTTCCG | 0.325
192 | AATCTTGA | -0.0715
193 | ATTCGTTA | 0.25
194 | ACTGTTTA | 0.0153
195 | ATCTACTA | 0.185
196 | AGTCTCAG | -0.122
197 | ATGTTAAC | 0.173
198 | AAGCCATG | -0.225
199 | CCAATCGA | 0.0798
200 | GATACTTA | -0.117

5 consecutive entries out of the list so far:
Row | Sequence | PBM E-score
194 | ACTGTTTA | 0.0153
195 | ATCTACTA | 0.185
196 | AGTCTCAG | -0.122
197 | ATGTTAAC | 0.173
198 | AAGCCATG | -0.225

Following part

Row | Sequence | PBM E-score
201 | CACTCAGG | -0.13
202 | AACCCACC | -0.0511
203 | AACATAAG | 0.308
204 | GACACCGA | -0.136
205 | AGCAGCTA | 0.0398
206 | CAACTGGG | -0.294
207 | CGAATCTA | -0.00374
208 | GATCCCCA | -0.15
209 | TGGCAGAA | 0.045
210 | CCCTGTTC | -0.17
211 | CTTCCAAG | -0.0916
212 | GTTGCATA | -0.0298
213 | ATCTCGCG | 0.228
214 | GAGCACAC | -0.15
215 | CTTCAACC | 0.124
216 | GCAGGCCC | -0.296
217 | CCCATTCC | -0.238
218 | ATATGGAC | 0.0106
219 | AAACTCCC | -0.213
